Measurements: paper PMC4945878
The exact form of at least one protein or probe is not confirmed. For part of these data: At least one verdict rests on a figure or table, not on a statement of the authors.

Sequences of proteins named here, by UniProt entry; tags and fusion partners are left off. Residues count along the entry.
UniProt Q9HAW4, 1-350: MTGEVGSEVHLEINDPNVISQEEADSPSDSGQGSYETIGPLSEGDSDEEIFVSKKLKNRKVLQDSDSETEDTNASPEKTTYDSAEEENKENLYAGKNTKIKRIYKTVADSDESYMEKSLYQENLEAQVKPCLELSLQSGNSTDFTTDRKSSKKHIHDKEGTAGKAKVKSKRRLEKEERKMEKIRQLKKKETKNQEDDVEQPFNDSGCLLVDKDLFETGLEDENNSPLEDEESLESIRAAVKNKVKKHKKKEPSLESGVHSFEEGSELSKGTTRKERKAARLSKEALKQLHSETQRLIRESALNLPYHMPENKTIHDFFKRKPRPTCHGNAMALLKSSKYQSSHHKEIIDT

What was measured:
[1] = target: Claspin wild-type full-length (human) (UniProt Q9HAW4); assay: filter binding; details: 20 mM K-glutamate, 8% glycerol, 30 C, 1 h, recombinant protein, residues 1-1339, protein details: Flag (C-term), label: 32P end label on 32mer-dT32 strand
Claspin #2 (human) = Claspin #2 (human) (UniProt Q9HAW4); assay: EMSA; details: aa1-350 can bind DNA with high affinity; 10 mM Tris-HCl pH 7.5, 40 ug/ml BSA, 1 mM DTT; 0.5 mM for filter binding), 20 mM K-glutamate, 8% glycerol, 30 C, 1 h; recombinant protein; residues 1-350; protein details: Flag (C-term); label: 32P end label on 32mer-dT32 strand

Sequence: AACGTCGTGACTGGGCACTTGATCGGCCAACCTTTTTTTTTTTTTTTTTTTTTTTTTTTTTTTT / TTTTTTTTTTTTTTTTTTTTTTTTTTTTTTTTGGTTGGCCGATCAAGTGCCCAGTCACGACGTT [Y-fork DNA]
- binding signal (% of binding without salt wash) ([1]; 150 mM KCl wash (legend says NaCl), 2 pmol protein; 10 mM Tris-HCl pH 7.5, 40 ug/ml BSA, 1 mM DTT; 0.5 mM for filter binding)): 20
- binding signal (% of binding without salt wash) ([1]; 250 mM KCl wash (legend says NaCl), 2 pmol protein; 10 mM Tris-HCl pH 7.5, 40 ug/ml BSA, 1 mM DTT; 0.5 mM for filter binding)): < 10
- binding result (Claspin #2 (human)): binds
